Data as given in PubChem BioAssay AID686938 (Drosophila RNAi Screening Center, 2013).
Test: 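Fly genes required for calcium entry once internal stores are emptied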 (primary screen). Cell system: Drosophila S2R+ cells. Reagent: long dsRNA against Drosophila genes, about 0.25 µg dsRNA per well, roughly 10,000 cells. Duration: 5 days of knock-down before the calcium assay. Challenge: thapsigargin (SERCA pump blocker) to empty calcium stores; entry signal taken 4 min after adding it. Detection: 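Duplicate raw fluo-4 intensities per well from a plate reader, at rest and four minutes after thapsigargin emptied calcium stores; entry-to-rest ratio filled for only some wells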. Scale: calcium entry signal: higher = stronger calcium signal after store depletion; entry to resting ratio: higher = more calcium entry relative to resting level; resting calcium signal: higher = higher resting calcium signal. Hit rule: 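Hit if the duplicate-averaged plate z-score for entry over resting signal is under −3; wells with weak total dye signal (Fmax z < −2) or more than 5 off-targets removed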. Meaning of the calls: active = strongly reduced calcium entry; inactive = no strong reduction.
The screen tested about 23,000 reagents; this is a random part of those with a known target gene and a result. In the full data, 75 (0.33%) are marked active. 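Raw plate signals without normalisation; calls rest on plate z-scores that were not deposited; ratio present for only 364 wells.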 Names joined by + are all predicted targets of the reagent. Not stated in the record: the dose of the treatment.

| target | amplicon | calcium entry signal, replicate 1 (fluorescence units) | calcium entry signal, replicate 2 (fluorescence units) | entry to resting ratio | resting calcium signal, replicate 1 (fluorescence units) | resting calcium signal, replicate 2 (fluorescence units) | call |
| --- | --- | --- | --- | --- | --- | --- | --- |
| SP1173 | DRSC11277 | 4.01e7 | 3.43e7 | – | 2.76e7 | 1.48e7 | inactive |
| 5-HT2A | DRSC11990 | 3.49e7 | 4.60e7 | – | 1.61e7 | 3.06e7 | inactive |
| wwk | DRSC01941 | 3.71e7 | 2.59e7 | – | 1.64e7 | 1.27e7 | inactive |
| Vtld + CG42529 | DRSC10102 | 3.32e7 | 4.75e7 | – | 1.55e7 | 2.08e7 | inactive |
| CG30389 | DRSC04077 | 4.71e7 | – | – | 2.61e7 | – | inactive |
| CG30389 | DRSC04452 | 3.83e7 | 4.38e7 | – | 2.02e7 | 1.90e7 | inactive |
| CG13443 | DRSC06403 | 3.03e7 | 2.95e7 | – | 1.48e7 | 1.30e7 | inactive |
| CG34228 | DRSC05300 | 4.62e7 | 5.42e7 | – | 2.43e7 | 2.36e7 | inactive |
| Bap111 | DRSC18419 | 2.66e7 | 4.12e7 | – | 1.76e7 | 2.45e7 | active |
| CG32228 | DRSC22296 | 3.11e7 | 5.32e7 | – | 1.55e7 | 2.66e7 | inactive |
| CG8501 | DRSC07198 | 3.73e7 | 4.24e7 | – | 1.58e7 | 1.99e7 | inactive |
| CG17575 | DRSC06682 | 3.35e7 | 3.91e7 | – | 1.76e7 | 1.67e7 | inactive |
| Pcyt2 | DRSC08531 | 3.17e7 | 2.85e7 | – | 1.51e7 | 1.40e7 | inactive |
| CG4984 + CG4975 | DRSC06907 | 3.62e7 | 4.46e7 | – | 1.74e7 | 2.23e7 | inactive |
| CG4984 + CG4975 | DRSC06908 | 3.17e7 | 2.48e7 | – | 1.45e7 | 1.34e7 | inactive |
| CG6753 | DRSC16108 | 3.49e7 | 3.69e7 | – | 1.90e7 | 1.93e7 | inactive |
| CG9368 | DRSC11067 | 2.72e7 | 3.45e7 | – | 1.20e7 | 2.26e7 | inactive |
| CG5412 | DRSC15796 | 3.56e7 | 3.47e7 | – | 1.65e7 | 1.54e7 | inactive |
| CG32590 | DRSC19594 | 4.12e7 | 3.42e7 | – | 2.11e7 | 1.50e7 | inactive |
| swm | DRSC02012 | 3.38e7 | 3.52e7 | – | 1.65e7 | 1.34e7 | inactive |
| swm | DRSC21831 | 2.41e7 | 3.52e7 | – | 1.44e7 | 2.29e7 | active |
| CG17343 | DRSC02606 | 4.12e7 | 5.02e7 | – | 1.97e7 | 2.02e7 | inactive |
| CG17343 | DRSC22807 | 3.50e7 | 3.82e7 | – | 1.69e7 | 1.90e7 | inactive |
| Obp44a | DRSC06838 | 3.54e7 | 4.03e7 | – | 1.69e7 | 1.73e7 | inactive |
| Ace | DRSC12959 | 3.74e7 | 3.50e7 | – | 1.81e7 | 1.53e7 | inactive |
| Ace | DRSC14100 | 3.79e7 | 4.50e7 | – | 1.66e7 | 1.93e7 | inactive |
| CG6044 | DRSC04522 | 2.28e7 | 2.90e7 | – | 1.21e7 | 1.34e7 | inactive |

A run of entries taken from the entries so far:
| target | amplicon | calcium entry signal, replicate 1 (fluorescence units) | calcium entry signal, replicate 2 (fluorescence units) | entry to resting ratio | resting calcium signal, replicate 1 (fluorescence units) | resting calcium signal, replicate 2 (fluorescence units) | call |
| --- | --- | --- | --- | --- | --- | --- | --- |
| Pcyt2 | DRSC08531 | 3.17e7 | 2.85e7 | – | 1.51e7 | 1.40e7 | inactive |
| CG4984 + CG4975 | DRSC06907 | 3.62e7 | 4.46e7 | – | 1.74e7 | 2.23e7 | inactive |
| CG4984 + CG4975 | DRSC06908 | 3.17e7 | 2.48e7 | – | 1.45e7 | 1.34e7 | inactive |
| CG6753 | DRSC16108 | 3.49e7 | 3.69e7 | – | 1.90e7 | 1.93e7 | inactive |
| CG9368 | DRSC11067 | 2.72e7 | 3.45e7 | – | 1.20e7 | 2.26e7 | inactive |
| CG5412 | DRSC15796 | 3.56e7 | 3.47e7 | – | 1.65e7 | 1.54e7 | inactive |
| CG32590 | DRSC19594 | 4.12e7 | 3.42e7 | – | 2.11e7 | 1.50e7 | inactive |
| swm | DRSC02012 | 3.38e7 | 3.52e7 | – | 1.65e7 | 1.34e7 | inactive |
| swm | DRSC21831 | 2.41e7 | 3.52e7 | – | 1.44e7 | 2.29e7 | active |
| CG17343 | DRSC02606 | 4.12e7 | 5.02e7 | – | 1.97e7 | 2.02e7 | inactive |
| CG17343 | DRSC22807 | 3.50e7 | 3.82e7 | – | 1.69e7 | 1.90e7 | inactive |
| Obp44a | DRSC06838 | 3.54e7 | 4.03e7 | – | 1.69e7 | 1.73e7 | inactive |

The list goes on.
| target | amplicon | calcium entry signal, replicate 1 (fluorescence units) | calcium entry signal, replicate 2 (fluorescence units) | entry to resting ratio | resting calcium signal, replicate 1 (fluorescence units) | resting calcium signal, replicate 2 (fluorescence units) | call |
| --- | --- | --- | --- | --- | --- | --- | --- |
| Nrx-IV | DRSC11238 | 5.68e7 | 4.11e7 | – | 3.85e7 | 1.81e7 | inactive |
| CG40486 | DRSC20619 | 5.13e7 | 4.30e7 | – | 2.20e7 | 2.02e7 | inactive |
| CG9760 | DRSC11101 | 3.21e7 | 3.63e7 | – | 1.73e7 | 1.88e7 | inactive |
| Vm34Ca | DRSC03475 | 3.30e7 | 2.25e7 | – | 1.50e7 | 1.13e7 | inactive |
| CG15483 | DRSC02493 | 5.37e7 | 3.43e7 | – | 2.43e7 | 1.67e7 | inactive |
| CG31808 | DRSC22962 | 3.17e7 | 3.14e7 | – | 1.56e7 | 1.49e7 | inactive |
| CG42233 | DRSC14328 | 4.72e7 | 4.56e7 | 2.1 | 2.28e7 | 1.94e7 | inactive |
| CG42233 | DRSC15416 | 4.23e7 | 5.27e7 | 2.1 | 2.02e7 | 2.16e7 | inactive |
| CG10208 | DRSC14211 | 4.99e7 | 3.62e7 | – | 2.19e7 | 1.65e7 | inactive |
| ChLD3 | DRSC02640 | 3.48e7 | 2.19e7 | – | 1.59e7 | 1.03e7 | inactive |
| CG32642 | DRSC18959 | 4.96e7 | 3.32e7 | – | 2.11e7 | 1.60e7 | inactive |
| CG3430 | DRSC02713 | 3.83e7 | – | – | 2.24e7 | – | inactive |
| CG30099 | DRSC07039 | 5.51e7 | 5.30e7 | – | 2.19e7 | 2.57e7 | inactive |
| cerv | DRSC19681 | 2.62e7 | 3.29e7 | – | 1.38e7 | 1.49e7 | inactive |
| Pgant8 | DRSC10801 | 3.76e7 | 4.73e7 | – | 1.60e7 | 1.92e7 | inactive |
| SmydA-8 | DRSC18797 | 4.51e7 | 5.70e7 | 2.2 | 2.08e7 | 2.42e7 | inactive |
| SmydA-8 | DRSC22064 | 3.88e7 | 5.70e7 | – | 1.80e7 | 2.72e7 | inactive |
| SmydA-8 | DRSC22263 | 2.74e7 | 4.27e7 | – | 1.31e7 | 2.02e7 | inactive |
| CG9184 | DRSC08636 | 3.82e7 | 5.37e7 | – | 1.86e7 | 2.26e7 | inactive |
| CG9184 | DRSC22184 | 3.81e7 | 4.15e7 | – | 1.72e7 | 2.44e7 | inactive |
| Rbfox1 | DRSC09034 | 4.39e7 | 5.33e7 | – | 2.27e7 | 2.52e7 | inactive |
| Rbfox1 | DRSC10157 | 1.49e7 | 3.81e7 | – | 8.43e6 | 2.02e7 | inactive |
| Rbfox1 | DRSC10320 | 1.33e7 | 1.67e7 | – | 8.11e6 | 1.00e7 | inactive |
| Rbfox1 | DRSC21378 | 3.14e7 | 4.09e7 | – | 1.78e7 | 1.80e7 | inactive |
| Rbfox1 | DRSC22992 | 4.32e7 | 3.41e7 | – | 1.80e7 | 1.38e7 | inactive |
| RabX2 | DRSC18234 | 1.94e7 | 4.92e7 | – | 9.79e6 | 2.69e7 | inactive |
| Jon44E | DRSC07216 | 4.78e7 | 4.81e7 | – | 2.30e7 | 2.08e7 | inactive |
| CG31224 | DRSC15272 | 4.91e7 | 2.52e7 | – | 2.21e7 | 1.31e7 | inactive |
| CG31224 | DRSC16290 | 4.67e7 | 4.19e7 | – | 2.06e7 | 1.66e7 | inactive |
| lncRNA:CR34047 | DRSC07857 | 4.33e7 | 4.68e7 | – | 2.09e7 | 2.13e7 | inactive |
| lncRNA:CR34047 | DRSC21689 | 4.66e7 | 3.24e7 | – | 2.54e7 | 1.57e7 | inactive |
| Stip1 | DRSC00756 | 3.82e7 | – | – | 2.08e7 | – | inactive |
| CG31462 (retired record) | DRSC14359 | 3.58e7 | 2.85e7 | – | 1.77e7 | 1.44e7 | inactive |
| Lsp1alpha | DRSC20258 | 4.57e7 | 3.11e7 | – | 2.26e7 | 1.49e7 | inactive |
| CG12438 | DRSC02167 | 2.79e7 | 3.97e7 | – | 1.31e7 | 1.66e7 | inactive |
| nenya | DRSC13838 | 3.63e7 | 3.51e7 | – | 1.77e7 | 1.78e7 | inactive |
| Indy | DRSC10393 | 4.10e7 | 4.49e7 | – | 1.98e7 | 3.12e7 | inactive |
| CG16959 | DRSC10230 | 3.72e7 | 4.31e7 | – | 1.76e7 | 2.96e7 | inactive |
| CG10598 | DRSC19358 | 3.55e7 | 3.12e7 | – | 1.77e7 | 1.50e7 | inactive |
| drl | DRSC03523 | 3.94e7 | – | – | 2.00e7 | – | inactive |
| CG8547 | DRSC07211 | 3.46e7 | 4.48e7 | – | 1.52e7 | 2.06e7 | inactive |
| klu | DRSC11357 | 2.45e7 | 3.17e7 | – | 1.29e7 | 1.37e7 | inactive |
| E(z) | DRSC11147 | 3.81e7 | 2.49e7 | – | 2.57e7 | 1.10e7 | inactive |
| CG5043 | DRSC02805 | 4.19e7 | 4.05e7 | – | 1.95e7 | 1.83e7 | inactive |
| CG31910 + snoRNA:Me28S-G2743 (retired record) | DRSC00946 | 3.85e7 | 4.38e7 | – | 2.08e7 | 1.96e7 | inactive |
| Hrb27C | DRSC03347 | 4.30e7 | – | – | 2.02e7 | – | inactive |
| indra | DRSC08558 | 3.27e7 | 2.62e7 | – | 1.39e7 | 1.34e7 | inactive |
| CG42855 | DRSC06161 | 5.86e7 | 5.70e7 | – | 2.66e7 | 2.82e7 | inactive |
